Laboratory results as given in doi:10.1101/2025.08.01.668162.
Read-outs that look alike come from different tables or passages of the source. Results are given in words; binding and its absence hold for the method and conditions named. In cells and extracts the contact can be indirect. Some binding calls cover weakened binding; strength is not graded here.

Sequences of proteins named here, by UniProt entry; tags and fusion partners are left off. A change or cut given only in a name is not applied to a line headed by its entry. A line that says so, or that is headed by a name, gives the form on record, which may keep a tag or linker. Residues count along the entry.
SEL1L (mouse, wild type) (mouse (endogenous in MEFs and liver)) (Q9Z2G6, residues 22-790): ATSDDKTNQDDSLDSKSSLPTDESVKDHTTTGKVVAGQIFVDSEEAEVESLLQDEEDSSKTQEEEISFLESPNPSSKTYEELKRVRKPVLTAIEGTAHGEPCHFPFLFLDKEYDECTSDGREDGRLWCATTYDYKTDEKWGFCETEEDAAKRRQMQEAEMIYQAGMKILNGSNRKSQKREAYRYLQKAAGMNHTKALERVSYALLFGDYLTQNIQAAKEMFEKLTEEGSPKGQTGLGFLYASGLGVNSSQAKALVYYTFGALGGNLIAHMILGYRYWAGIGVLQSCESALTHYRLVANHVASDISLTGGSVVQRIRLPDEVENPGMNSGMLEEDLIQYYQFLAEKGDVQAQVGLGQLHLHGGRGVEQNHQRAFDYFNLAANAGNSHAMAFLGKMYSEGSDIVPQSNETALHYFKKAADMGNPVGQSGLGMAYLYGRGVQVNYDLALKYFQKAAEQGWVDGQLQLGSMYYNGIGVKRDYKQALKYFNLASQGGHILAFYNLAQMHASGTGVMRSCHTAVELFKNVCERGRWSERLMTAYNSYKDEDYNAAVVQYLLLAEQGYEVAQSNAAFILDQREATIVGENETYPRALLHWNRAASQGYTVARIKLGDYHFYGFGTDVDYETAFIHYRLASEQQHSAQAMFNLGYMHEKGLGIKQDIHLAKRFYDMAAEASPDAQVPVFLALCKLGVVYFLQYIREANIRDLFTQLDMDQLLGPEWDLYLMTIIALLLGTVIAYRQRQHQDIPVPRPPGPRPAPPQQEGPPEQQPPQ
SEL1L P699T (mouse knock-in, mouse P695T) (mouse (endogenous in MEFs)) (Q9Z2G6, form named): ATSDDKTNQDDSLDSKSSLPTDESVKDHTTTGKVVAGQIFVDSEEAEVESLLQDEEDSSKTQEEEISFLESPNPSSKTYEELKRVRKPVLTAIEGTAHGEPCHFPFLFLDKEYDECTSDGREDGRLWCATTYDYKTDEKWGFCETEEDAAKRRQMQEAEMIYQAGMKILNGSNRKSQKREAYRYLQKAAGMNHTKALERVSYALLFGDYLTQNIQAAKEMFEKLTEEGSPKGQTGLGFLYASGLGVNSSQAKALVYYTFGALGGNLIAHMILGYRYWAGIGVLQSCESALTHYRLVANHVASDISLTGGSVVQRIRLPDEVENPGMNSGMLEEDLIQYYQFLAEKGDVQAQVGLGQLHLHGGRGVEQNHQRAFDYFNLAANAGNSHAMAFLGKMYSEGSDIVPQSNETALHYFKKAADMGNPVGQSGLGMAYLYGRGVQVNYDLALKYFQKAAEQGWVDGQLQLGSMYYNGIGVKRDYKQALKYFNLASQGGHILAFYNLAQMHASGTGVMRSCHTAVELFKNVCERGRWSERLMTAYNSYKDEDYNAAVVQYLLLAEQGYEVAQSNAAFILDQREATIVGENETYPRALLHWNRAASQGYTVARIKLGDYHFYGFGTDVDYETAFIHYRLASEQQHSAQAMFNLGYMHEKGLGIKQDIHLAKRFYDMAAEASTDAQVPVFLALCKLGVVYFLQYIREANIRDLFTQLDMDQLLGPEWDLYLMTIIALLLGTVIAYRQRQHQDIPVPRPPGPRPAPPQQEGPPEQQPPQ
SEL1L L709P (mouse knock-in, mouse L705P) (mouse (endogenous in MEFs and liver)) (Q9Z2G6, form named): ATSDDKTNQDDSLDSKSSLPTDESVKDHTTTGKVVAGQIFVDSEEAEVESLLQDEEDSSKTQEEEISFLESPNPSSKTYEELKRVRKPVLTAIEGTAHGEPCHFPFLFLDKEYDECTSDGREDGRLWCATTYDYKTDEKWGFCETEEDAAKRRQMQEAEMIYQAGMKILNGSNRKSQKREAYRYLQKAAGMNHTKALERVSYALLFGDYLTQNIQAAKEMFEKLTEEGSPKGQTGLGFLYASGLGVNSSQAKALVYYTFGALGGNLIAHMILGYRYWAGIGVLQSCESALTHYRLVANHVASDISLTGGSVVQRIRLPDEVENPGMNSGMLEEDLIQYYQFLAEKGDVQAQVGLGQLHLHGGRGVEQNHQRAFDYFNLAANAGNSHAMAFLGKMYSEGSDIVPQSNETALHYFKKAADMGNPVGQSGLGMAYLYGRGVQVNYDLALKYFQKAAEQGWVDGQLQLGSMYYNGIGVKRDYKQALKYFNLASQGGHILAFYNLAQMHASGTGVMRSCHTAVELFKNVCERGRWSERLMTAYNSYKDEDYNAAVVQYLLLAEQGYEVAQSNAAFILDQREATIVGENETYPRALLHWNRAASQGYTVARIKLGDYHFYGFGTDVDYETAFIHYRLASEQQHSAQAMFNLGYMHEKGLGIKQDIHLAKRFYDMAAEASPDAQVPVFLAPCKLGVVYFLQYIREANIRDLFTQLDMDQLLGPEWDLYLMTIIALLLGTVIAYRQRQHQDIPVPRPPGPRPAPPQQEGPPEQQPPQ
UniProt Q9DBY1: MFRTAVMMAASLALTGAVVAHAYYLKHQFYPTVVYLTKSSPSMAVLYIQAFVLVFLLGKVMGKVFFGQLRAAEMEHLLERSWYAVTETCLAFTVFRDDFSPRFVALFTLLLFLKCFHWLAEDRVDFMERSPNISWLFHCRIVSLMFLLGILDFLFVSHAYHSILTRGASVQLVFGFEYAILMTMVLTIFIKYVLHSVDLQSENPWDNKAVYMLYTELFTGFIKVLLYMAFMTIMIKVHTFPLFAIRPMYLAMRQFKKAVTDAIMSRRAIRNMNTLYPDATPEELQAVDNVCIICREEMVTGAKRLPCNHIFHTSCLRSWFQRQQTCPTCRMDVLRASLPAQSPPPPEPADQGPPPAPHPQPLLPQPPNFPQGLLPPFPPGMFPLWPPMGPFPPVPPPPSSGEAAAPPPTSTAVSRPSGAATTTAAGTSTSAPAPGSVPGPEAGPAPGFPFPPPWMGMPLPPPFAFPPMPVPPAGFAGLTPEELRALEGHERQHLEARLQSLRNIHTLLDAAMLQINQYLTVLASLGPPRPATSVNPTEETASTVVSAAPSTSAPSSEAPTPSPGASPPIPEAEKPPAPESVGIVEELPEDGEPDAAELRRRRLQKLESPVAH
SEL1L (human, wild type) (human (endogenous in HEK293T)) (Q9UBV2, residues 22-794): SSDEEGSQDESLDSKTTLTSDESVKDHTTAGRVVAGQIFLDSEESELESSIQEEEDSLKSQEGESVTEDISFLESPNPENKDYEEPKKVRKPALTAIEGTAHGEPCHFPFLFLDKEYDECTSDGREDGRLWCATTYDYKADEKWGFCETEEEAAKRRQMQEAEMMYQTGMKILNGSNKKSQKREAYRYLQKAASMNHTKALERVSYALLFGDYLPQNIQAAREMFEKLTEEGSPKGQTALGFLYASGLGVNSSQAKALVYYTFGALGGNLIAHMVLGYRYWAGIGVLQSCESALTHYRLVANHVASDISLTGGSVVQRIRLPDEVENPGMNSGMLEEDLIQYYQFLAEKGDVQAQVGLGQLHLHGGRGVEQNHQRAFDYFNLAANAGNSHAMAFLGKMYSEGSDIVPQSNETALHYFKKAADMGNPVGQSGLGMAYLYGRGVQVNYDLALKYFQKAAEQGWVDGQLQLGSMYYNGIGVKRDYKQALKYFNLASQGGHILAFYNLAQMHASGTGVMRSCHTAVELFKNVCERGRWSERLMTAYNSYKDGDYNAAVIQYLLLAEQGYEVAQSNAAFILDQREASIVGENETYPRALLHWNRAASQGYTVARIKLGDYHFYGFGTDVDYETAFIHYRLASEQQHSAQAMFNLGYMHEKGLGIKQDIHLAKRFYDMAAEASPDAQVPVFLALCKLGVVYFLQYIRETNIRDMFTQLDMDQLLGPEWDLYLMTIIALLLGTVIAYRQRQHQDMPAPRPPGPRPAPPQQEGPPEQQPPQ
SEL1L L709P (human, knock-in HEK293T) (human (endogenous in HEK293T)) (Q9UBV2, form named): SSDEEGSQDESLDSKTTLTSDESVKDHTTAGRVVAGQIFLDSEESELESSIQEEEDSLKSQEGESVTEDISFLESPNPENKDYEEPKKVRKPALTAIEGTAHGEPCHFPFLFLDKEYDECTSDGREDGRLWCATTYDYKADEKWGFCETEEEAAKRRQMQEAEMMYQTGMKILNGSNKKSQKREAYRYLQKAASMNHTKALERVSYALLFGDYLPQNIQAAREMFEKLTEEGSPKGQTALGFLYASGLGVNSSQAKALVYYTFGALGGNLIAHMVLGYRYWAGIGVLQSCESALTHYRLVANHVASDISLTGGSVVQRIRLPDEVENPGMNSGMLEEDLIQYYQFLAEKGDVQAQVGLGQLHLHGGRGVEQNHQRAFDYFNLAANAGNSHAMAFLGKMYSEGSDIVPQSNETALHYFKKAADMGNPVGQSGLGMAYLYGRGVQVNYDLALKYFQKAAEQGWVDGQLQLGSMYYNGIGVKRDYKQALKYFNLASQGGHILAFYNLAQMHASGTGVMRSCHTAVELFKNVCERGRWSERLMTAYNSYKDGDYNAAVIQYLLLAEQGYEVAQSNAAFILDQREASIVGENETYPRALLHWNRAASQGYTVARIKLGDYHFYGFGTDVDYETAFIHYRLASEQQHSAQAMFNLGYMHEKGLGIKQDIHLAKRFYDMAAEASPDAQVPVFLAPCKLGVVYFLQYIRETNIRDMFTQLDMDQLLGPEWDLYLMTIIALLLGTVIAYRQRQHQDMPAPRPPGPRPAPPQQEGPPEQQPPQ

B1: UBE2J1 (mouse) (enzyme, UniProt Q9JJZ4 1-318)
chain: METRYNLKSPAVKRLMKEAAELKDPTDHYHAQPLEDNLFEWHFTVRGPPDSDFDGGVYHGRIVLPPEYPMKPPSIILLTANGRFEVGKKICLSISGHHPETWQPSWSIRTALLAIIGFMPTKGEGAIGSLDYTPEERRALAKKSQDFCCEGCGSAMKDVLLPLKSGSGSSQADQEAKELARQISFKAEVNSSGKTIAESDLNQCFSLNDSQDDLPTTFQGATASTSYGAQNPSGAPLPQPTQPAPKNTSMSPRQRRAQQQSQRRPSTSPDVLQGQPPRAHHTEHGGSAMLIIILTLALAALIFRRIYLANEYIFDFEL
B2: OS9 (human) (protein, UniProt Q13438 26-667)
chain: GGVGSLNLEELSEMRYGIEILPLPVMGGQSQSSDVVIVSSKYKQRYECRLPAGAIHFQREREEETPAYQGPGIPELLSPMRDAPCLLKTKDWWTYEFCYGRHIQQYHMEDSEIKGEVLYLGYYQSAFDWDDETAKASKQHRLKRYHSQTYGNGSKCDLNGRPREAEVRFLCDEGAGISGDYIDRVDEPLSCSYVLTIRTPRLCPHPLLRPPPSAAPQAILCHPSLQPEEYMAYVQRQADSKQYGDKIIEELQDLGPQVWSETKSGVAPQKMAGASPTKDDSKDSDFWKMLNEPEDQAPGGEEVPAEEQDPSPEAADSASGAPNDFQNNVQVKVIRSPADLIRFIEELKGGTKKGKPNIGQEQPVDDAAEVPQREPEKERGDPERQREMEEEEDEDEDEDEDEDERQLLGEFEKELEGILLPSDRDRLRSEVKAGMERELENIIQETEKELDPDGLKKESERDRAMLALTSTLNKLIKRLEEKQSPELVKKHKKKRVVPKKPPPSPQPTEEDPEHRVRVRVTKLRLGGPNQDLTVLEMKRENPQLKQIEGLVKELLEREGLTAAGKIEIKIVRPWAEGTEEGARWLTDEDTRNLKEIFFNILVPGAEEAQKERQRQKELESNYRRVWGSPGGEGTGDLDEFDF
B3: UBE2J1 (human) (enzyme, UniProt Q9Y385 1-318)
chain: METRYNLKSPAVKRLMKEAAELKDPTDHYHAQPLEDNLFEWHFTVRGPPDSDFDGGVYHGRIVLPPEYPMKPPSIILLTANGRFEVGKKICLSISGHHPETWQPSWSIRTALLAIIGFMPTKGEGAIGSLDYTPEERRALAKKSQDFCCEGCGSAMKDVLLPLKSGSDSSQADQEAKELARQISFKAEVNSSGKTISESDLNHSFSLTDLQDDIPTTFQGATASTSYGLQNSSAASFHQPTQPVAKNTSMSPRQRRAQQQSQRRLSTSPDVIQGHQPRDNHTDHGGSAVLIVILTLALAALIFRRIYLANEYIFDFEL

How the values were obtained:
Experiment in all cases: co-IP
[1] = biological target: SEL1L (mouse, wild type) (mouse (endogenous in MEFs and liver)) (UniProt Q9Z2G6)
[2] = biological target: SEL1L P699T (mouse knock-in, mouse P695T) (mouse (endogenous in MEFs)) (UniProt Q9Z2G6)
[3] = biological target: SEL1L (mouse, wild type) (mouse (endogenous in MEFs and liver)) (UniProt Q9Z2G6); remark: listed apart in the source
[4] = biological target: HRD1 (mouse) (mouse (endogenous in MEFs and liver)) (UniProt Q9DBY1)
[5] = biological target: SEL1L L709P (mouse knock-in, mouse L705P) (mouse (endogenous in MEFs and liver)) (UniProt Q9Z2G6)
[6] = biological target: SEL1L L709P (mouse knock-in, mouse L705P) (mouse (endogenous in MEFs and liver)) (UniProt Q9Z2G6); remark: listed apart in the source
[7] = biological target: SEL1L (human, wild type) (human (endogenous in HEK293T)) (UniProt Q9UBV2)
[8] = biological target: SEL1L L709P (human, knock-in HEK293T) (human (endogenous in HEK293T)) (UniProt Q9UBV2)

Row | Molecule | binding [1] | binding [3] | binding [7] | binding [8] | also measured
1 | HRD1 (mouse) (from UniProt Q9DBY1 1-612) | binds | binds | – | – | binding [2]: binds
2 | SEL1L (mouse, wild type) (from UniProt Q9Z2G6 22-790) | – | – | – | – | binding [4]: binds
3 | B1 | binds | binds | – | – | binding [5]: binds; binding [6]: binds
4 | B2 | – | – | binds | binds | –
5 | B3 | – | – | binds | binds | –
